Consider 23 molecules from patent publication US20120122981A1, “Biomarkers Related to Insulin Resistance and Methods using the Same” (priority 2009, published 2012).

The nature of the first data set: Targeted LC-MS-MS biomarker levels in plasma of bariatric surgery subjects (baseline vs post-surgery). Particulars: post-surgery as insulin sensitivity increases. It counts as in vivo, human.
For `CC[C@H](O)C(=O)O` [2-hydroxybutyrate], the “change of biomarker level following bariatric surgery” value was “decreased”.

The nature of a further data set: Prediction of progression to dyslipidemia at 3 years from baseline plasma biomarker levels, t-test and Random Forest (Tables 28, 29). Also on record: species or system human. Particulars: progressor mean / non-progressor mean.
For the molecule “1-palmitoyl-2-hydroxy-sn-glycero-3-phosphocholine [Palmitoyl-LPC]”, the RATIO is 0.97.
Take linolenic_acid: the RATIO was 0.81.
Still for that read-out and setting: for `NCC(=O)O` [Glycine, 2-aminoacetic acid] the value was 0.94; for `N[C@@H](Cc1c[nH]c2ccccc12)C(=O)O` [Tryptophan], 1.02.
Take `CCCCC/C=C\C/C=C\CCCCCCCC(=O)OC[C@@H](O)COP(=O)([O-])OCC[N+](C)(C)C` [Linoleoyl-LPC, 1-linoleoyl-2-hydroxy-sn-glycero-3-phosphocholine]: the RATIO is listed as 1.01.
Still for that read-out and setting: for `NC(CO)C(=O)O` (stereo not drawn) [Serine, 2-amino-3-hydroxy-propanoic acid] the value was 0.97; for `CCCCCCCC/C=C\CCCCCCCC(=O)O` [oleic_acid], 0.88.
Still for that read-out and setting: for “1-oleoyl-2-hydroxy-sn-glycero-3-phosphocholine [Oleoyl-LPC]” the value was 0.95.
Same read-out and setting: the same measure for `C[N+](C)(C)CC(=O)[O-]` [Betaine, 2-(trimethylazaniumyl)acetate]: 1.14; for `CC[C@H](O)C(=O)O` [2-hydroxybutyrate]: 1.01; for `CN(CC(=O)O)C(=N)N` [Creatine, 2-[carbamimidoyl(methyl)amino]acetic acid]: 0.90.
For docosatetraenoic_acid, the RATIO is recorded as 0.99.
The same measure, in the same setting: the same measure for `CC(O)CC(=O)O` (stereo not drawn) [3-hydroxy-butyrate, 3-hydroxybutanoic acid]: 0.87; for `C[C@@H](O)[C@H](N)C(=O)O` [Threonine]: 1.00; for `CCCCCCCCCCCCCCCC(=O)O` [Palmitate]: 0.90.
On to `CCCCC/C=C\C/C=C\CCCCCCCC(=O)O` [linoleic_acid], for which the RATIO is reported as 0.98.
Same read-out and setting: the same measure for `CCCCCC/C=C\CCCCCCCC(=O)O` [palmitoleic_acid]: 0.68; for `N=C(N)NCCC[C@H](N)C(=O)O` [Arginine]: 1.01; for `N[C@@H](CCC(=O)O)C(=O)O` [glutamic_acid]: 1.10.
Still for that read-out and setting: the same measure for `CCCCCCCCCCCCCCCCC(=O)O` [margaric_acid]: 0.96.
Same read-out and setting: for `CCCCCCCC(=O)O[C@H](CC(=O)O)C[N+](C)(C)C` [octanoyl_carnitine] the value was 1.06.
Turning to `CC(C)C(=O)C(=O)O` [Biomarker 3-methyl-2-oxo-butyric_acid], the RATIO is recorded as 1.03.
Same read-out and setting: for `CCCCCCCCCCCCCCCCCC(=O)O` [Stearic acid (Stearate), Octadecanoic acid] the value was 0.94.
